According to patent publication US7462345B2, “Radionuclide labeling of vitamin B12 and coenzymes thereof” (Mayo Foundation for Medical Education and Research, priority 1995, dated 2008):

Test: Chelation of radionuclides, TLC and autoradiography
Assay type: physicochemical
Details: Tc-99m

Row | SMILES | specific activity [mCi/μg]
1 | CC1=C2N=C(C=C3N=C(C(C)=C4[N-]C(C(CC(N)=O)C4(C)CCC(=O)NCC(C)OP(=O)([O-])OC4C(CO)OC(n5cnc6cc(C)c(C)cc65)C4O)C4(C)N=C1C(CCC(=O)NCCCCNC(=O)CN(CCN(CCN(CC(=O)O)CC(=O)O)CC(=O)O)CC(=O)O)C4(C)CC(N)=O)C(CCC(N)=O)C3(C)C)C(CCC(N)=O)C2(C)CC(N)=O.[CH2-]C1OC(n2cnc3c(N)ncnc32)C(O)C1O.[Co+3] (centres unmarked) [ADB12DTPA, adenosylcobalamin-b-(4-aminobutyl)-amide-DTPA] | 10
2 | CC1=C2N=C(C=C3N=C(C(C)=C4[N-]C(C(CC(N)=O)C4(C)CCC(=O)NCC(C)OP(=O)([O-])OC4C(CO)OC(n5cnc6cc(C)c(C)cc65)C4O)C4(C)N=C1C(CCC(=O)NCCCCNC(=O)CN(CCN(CCN(CC(=O)O)CC(=O)O)CC(=O)O)CC(=O)O)C4(C)CC(N)=O)C(CCC(N)=O)C3(C)C)C(CCC(N)=O)C2(C)CC(N)=O.[CH3-].[Co+3] (centres unmarked) [MEB12DTPA, methylcobalamin-b-(4-aminobutyl)-amide-DTPA] | 10
